In article PMC12104565:
No constants are given. Whether binding was seen depends on the method and setting. In cells and extracts the contact can be indirect. Some entries that bind do so weakly or less than the wild type. Sequences can lack the tags named with a protein.

Molecular target: T1, GFP-tagged intact human CD248 (hCD248: WT) (human) (UniProt Q9HCU0)
T1 sequence: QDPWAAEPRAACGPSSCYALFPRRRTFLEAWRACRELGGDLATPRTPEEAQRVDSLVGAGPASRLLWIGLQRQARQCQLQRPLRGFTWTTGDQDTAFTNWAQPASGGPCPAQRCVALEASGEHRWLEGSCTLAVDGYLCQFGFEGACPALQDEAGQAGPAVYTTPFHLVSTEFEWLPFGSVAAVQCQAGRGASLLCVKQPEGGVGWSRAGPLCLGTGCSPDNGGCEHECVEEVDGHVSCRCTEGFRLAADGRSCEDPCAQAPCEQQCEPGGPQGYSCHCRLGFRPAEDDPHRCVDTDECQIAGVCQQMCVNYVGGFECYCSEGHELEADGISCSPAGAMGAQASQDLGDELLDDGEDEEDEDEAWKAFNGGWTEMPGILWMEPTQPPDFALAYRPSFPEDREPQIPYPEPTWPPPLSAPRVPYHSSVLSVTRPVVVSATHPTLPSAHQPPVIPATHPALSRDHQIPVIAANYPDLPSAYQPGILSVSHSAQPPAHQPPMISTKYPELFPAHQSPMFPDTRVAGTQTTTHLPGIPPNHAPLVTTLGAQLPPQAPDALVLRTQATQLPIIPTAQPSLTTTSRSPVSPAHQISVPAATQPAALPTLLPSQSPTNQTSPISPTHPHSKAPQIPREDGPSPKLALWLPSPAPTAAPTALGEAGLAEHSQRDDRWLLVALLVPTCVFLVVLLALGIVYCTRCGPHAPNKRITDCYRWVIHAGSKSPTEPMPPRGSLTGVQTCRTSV
Test: co-IP; HEK293T cells overexpressing GFP-tagged intact human CD248 with PDGFRβ or HA-tagged AT1; IP with anti-GFP antibodies, immunoblot for PDGFRβ or HA-tagged AT1

HA-tagged AT1 (from UniProt P30556 1-359) (receptor)
binding: binds

PDGFRβ (from UniProt P09619 33-1106) (receptor)
binding: binds
